Experiment [1] concerns the target T1, PilG-HA (Pseudomonas aeruginosa PAO1) (UniProt P46384).
T1 sequence: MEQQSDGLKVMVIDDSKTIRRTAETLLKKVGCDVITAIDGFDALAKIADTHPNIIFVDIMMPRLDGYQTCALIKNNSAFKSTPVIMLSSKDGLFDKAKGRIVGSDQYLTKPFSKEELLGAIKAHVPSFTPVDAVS
The experiment in a line: affinity purification with mass spectrometry.

Experiment [2] addresses T2, PilH-HA (Pseudomonas aeruginosa PAO1) (UniProt P43501).
T2 sequence: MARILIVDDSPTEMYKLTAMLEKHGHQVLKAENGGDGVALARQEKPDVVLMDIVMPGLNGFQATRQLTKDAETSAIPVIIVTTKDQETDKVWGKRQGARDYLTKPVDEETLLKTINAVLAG
The experiment in a line: affinity purification with mass spectrometry.

No constants are given. Whether binding was seen depends on the method and setting. Binding seen in cells or lysates may run through a third protein. A yes stands for co-enrichment or nearness to the bait. Other partners may have been found. For some assays here: A no says only that the protein was not detected with the bait. Tags and fused reporters may be left off the sequences shown.

Turning to “ChpB methylesterase (from UniProt G3XD63) (enzyme)”, the binding result in experiment [1] is listed as “binds”; in experiment [2] it was “no binding”.

Values taken from paper doi:10.1101/2024.02.27.582188.
